Target: 5-hydroxytryptamine receptor 6 (Homo sapiens, UniProt P50406)

Protein sequences, listed by entry. Tags and fused reporters are not part of them.
UniProt P50406, whole entry: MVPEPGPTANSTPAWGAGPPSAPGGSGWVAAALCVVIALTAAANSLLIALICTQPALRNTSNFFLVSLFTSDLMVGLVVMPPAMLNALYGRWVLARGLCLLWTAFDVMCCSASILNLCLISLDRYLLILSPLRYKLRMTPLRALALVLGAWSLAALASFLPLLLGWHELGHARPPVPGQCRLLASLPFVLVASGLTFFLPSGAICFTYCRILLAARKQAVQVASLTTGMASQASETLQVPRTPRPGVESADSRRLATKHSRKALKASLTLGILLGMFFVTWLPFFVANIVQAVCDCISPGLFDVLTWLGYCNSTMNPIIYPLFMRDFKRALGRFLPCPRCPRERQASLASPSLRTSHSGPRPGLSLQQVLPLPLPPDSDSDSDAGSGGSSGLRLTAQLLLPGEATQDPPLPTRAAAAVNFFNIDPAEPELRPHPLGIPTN

SMILES: OCCOCCN1CCN(C2=Nc3ccccc3Sc3ccccc32)CC1 [2-[2-(4-dibenzo[b,f][1,4]thiazepin-11-ylpiperazin-1-yl)ethoxy]ethanol]
- Ki: 33 nM
